PubChem BioAssay AID1224829 | NIAID – 2016
The deposit covers about 3,800 reagents; below is a part drawn at random. 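Calls cover raised and lowered translocation; gene median uses one vendor's three siRNAs; qiagen siRNAs acted more weakly than ambion siRNAs.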 Unmarked entries are inactive. The numbers tell different reagents against one gene apart.

- Assay: 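Genes needed for LPS-driven NF-kappaB p65 nuclear entry in mouse macrophages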 (follow-up of hits)
- Cell system: mouse RAW264.7 G9 macrophage reporter cells
- Reagents: single siRNA against mouse genes, 100 nM
- Duration: 2 days of siRNA knock-down, then 40 min of LPS before fixing
- Treatment: LPS (Salmonella minnesota R595) at 10 ng/ml
- Read-out: 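Imaging of GFP-p65 after 40 min of LPS; nuclear over perinuclear ring intensity ratio, scaled to plate median and non-targeting control wells, given as z-score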
- Reading the numbers: p65 translocation z-score and gene median z-score, per vendor: higher = more nuclear NF-kappaB p65 after LPS
- Call rule: 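Active means the replicate-mean z-score lies beyond plus or minus 2, in either direction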
- Meaning of the calls: active = changed p65 translocation (either direction); inactive = no clear change

| p65 translocation z-score, replicate mean | p65 translocation z-score, replicate 1 | p65 translocation z-score, replicate 2 | gene median z-score, per vendor | Gene | reagent no. | siRNA vendor or control pool |
| --- | --- | --- | --- | --- | --- | --- |
| -1.09 | -1.43 | -0.749 | -1.44 | Sh2d2a | 1 | ambion single siRNA |
| -3.28 (active) | -4.59 | -1.98 | -1.44 | Sh2d2a | 2 | ambion single siRNA |
| -1.37 | -1.45 | -1.3 | -1.44 | Sh2d2a | 3 | ambion single siRNA |
| 1.18 | 0.78 | 1.58 | 0.78 | Sh2d2a | 4 | qiagen single siRNA |
| -0.634 | 0.649 | -1.92 | 0.78 | Sh2d2a | 5 | qiagen single siRNA |
| 1.7 | 1.7 | – | 0.78 | Sh2d2a | 6 | qiagen single siRNA |
| -2 (active) | -2.4 | -1.61 | -3.97 | Pold3 | 1 | ambion single siRNA |
| -4.05 (active) | -5.14 | -2.96 | -3.97 | Pold3 | 2 | ambion single siRNA |
| -5.34 (active) | -5.7 | -4.99 | -3.97 | Pold3 | 3 | ambion single siRNA |
| 0.74 | 0.695 | 0.785 | 0.74 | Pold3 | 4 | qiagen single siRNA |
| 2.99 (active) | 4.01 | 1.97 | 0.74 | Pold3 | 5 | qiagen single siRNA |
| 0.331 | 0.0865 | 0.576 | 0.74 | Pold3 | 6 | qiagen single siRNA |

Targets above whose target name begins with S or s (6):
| p65 translocation z-score, replicate mean | p65 translocation z-score, replicate 1 | p65 translocation z-score, replicate 2 | gene median z-score, per vendor | Gene | reagent no. | siRNA vendor or control pool |
| --- | --- | --- | --- | --- | --- | --- |
| -1.09 | -1.43 | -0.749 | -1.44 | Sh2d2a | 1 | ambion single siRNA |
| -3.28 (active) | -4.59 | -1.98 | -1.44 | Sh2d2a | 2 | ambion single siRNA |
| -1.37 | -1.45 | -1.3 | -1.44 | Sh2d2a | 3 | ambion single siRNA |
| 1.18 | 0.78 | 1.58 | 0.78 | Sh2d2a | 4 | qiagen single siRNA |
| -0.634 | 0.649 | -1.92 | 0.78 | Sh2d2a | 5 | qiagen single siRNA |
| 1.7 | 1.7 | – | 0.78 | Sh2d2a | 6 | qiagen single siRNA |

More records follow:
| p65 translocation z-score, replicate mean | p65 translocation z-score, replicate 1 | p65 translocation z-score, replicate 2 | gene median z-score, per vendor | Gene | reagent no. | siRNA vendor or control pool |
| --- | --- | --- | --- | --- | --- | --- |
| 0.226 | 0.617 | -0.165 | -2.1 | Zdhhc9 | 1 | ambion single siRNA |
| -3.4 (active) | -2.87 | -3.93 | -2.1 | Zdhhc9 | 2 | ambion single siRNA |
| -2.1 (active) | -2.8 | -1.39 | -2.1 | Zdhhc9 | 3 | ambion single siRNA |
| 3.18 (active) | 2.75 | 3.62 | 2.38 | Zdhhc9 | 4 | qiagen single siRNA |
| 2.91 (active) | 2.01 | 3.8 | 2.38 | Zdhhc9 | 5 | qiagen single siRNA |
| 0.0809 | -0.3 | 0.461 | 2.38 | Zdhhc9 | 6 | qiagen single siRNA |
| 1.11 | 1.57 | 0.654 | -0.144 | Skint7 | 1 | ambion single siRNA |
| -1.15 | -1.36 | -0.941 | -0.144 | Skint7 | 2 | ambion single siRNA |
| -0.662 | 0.895 | -2.22 | -0.144 | Skint7 | 3 | ambion single siRNA |
| -1.02 | -1.09 | -0.939 | -0.884 | Skint7 | 4 | qiagen single siRNA |
| -0.712 | -0.829 | -0.596 | -0.884 | Skint7 | 5 | qiagen single siRNA |
| – | – | – | -0.884 | Skint7 | 6 | qiagen single siRNA |
